At least one structure is not confirmed: it was looked up by name or label, or the drawing left a doubt.
tested on: PFK1-mEGFP clustering in HeLa-T-PFK1G cells; assay: qHTS PFK1-mEGFP clustering assay with the LOKI library; type: cell-based, human; settings: LOKI screen, PFK1-mEGFP clustering vs log compound concentration; Table 3 hits
Experimental: HeLa-T-PFK1G cells were plated in 1536-well black, clear bottom, low base microwell plates (Aurora Microplates, Inc.) at a density of 400 cells/well in DMEM supplemented with 10% dialyzed FBS, 1% Pen-Strep, and 1 μg/mL doxycycline. The cells were incubated at 37° C., 5% CO2, and 95% humidity for 16 hours. A qHTS assay was scaled to 4 μL volumes in 1536-well format in a semi-automated manner.
Second, the qHTS assay was carried out with the LOKI library (10 mM, 11-point 1:3 intra-plate titration). Again, 23 nL of compounds were transferred by a pintool (Kalypsys) in the final concentration range of 974 pM to 57.5 μM along with DMSO. […] The cells were then incubated overnight with small molecules. Approximately 24 hours later, the cells were fixed with 3.5% paraformaldehyde and nuclei were stained using a 1:1000 dilution of Hoechst dye for ˜20 minutes. Cells were washed and imaged with an INCell Analyzer 2000 or INCell Analyzer 2200 (GE Healthcare Life Sciences) as described above.
Images were processed in the GE Workstation software and analyzed with a multitarget analysis of fluorescence. Top-hat segmentation of the DAPI channel was used to identify nuclei with a minimum area of 100 μm^2 and sensitivity of 40 settings. Multiscale top-hat segmentation of the FITC channel was used to identify cells with a characteristic area of 200 μm^2 and sensitivity of 70 settings. This allowed for the identification of fluorescent cells from the background or dead cells. Following cell segmentation, the same FITC channel was analyzed with multiscale top-hat segmentation to identify PFK1-mEGFP clusters with a size range of 0.2-2 μm^2, number scales of 1, process parameters of 1 pixel, sensitivity of 40, and inclusions in the cytoplasm. A filter of object area, that is, the area of PFK1-mEGFP clusters, below 30 μm^2 and an advanced sensitivity range of 1.5, was also applied. A decision tree thresholding was developed to identify cells with PFK1 clusters with three nodes. The start node required a cell intensity above 110 GL, the second node required a PFK1 cluster count above 1, and the third node required the total area of the PFK1 cluster above 5 μm^2. Ultimately, this allowed for the identification of cluster-positive cells over non-clustering cells. The total number of cells with a total area of PFK1 clusters above 5 μm^2 (most stringent parameter) and the total number of cells with any PFK1 clusters were calculated with the above algorithm and normalized by plate to the 57.5 μM kenpaullone intra-plate control as previously described (Inglese et al., 2006). Assay effectiveness including S:N (the signal to noise ratio) and Z′ (the index of assay quality (Zhang et al., 1999)) were calculated for both parameters using the same respective control. Both parameters were normalized to the average signal of DMSO (vehicle)-treated wells as a zero percent neutral control and the average signal of 57.5 μM kenpaullone-treated wells as maximum PFK1-mEGFP clustering. Cell count based on the number of nuclei was used as a parameter of cytotoxicity, which was also normalized to the average signal of DMSO-treated wells as a zero percent neutral control and the average signal of 57.5 μM […]-treated wells as maximum PFK1-mEGFP clustering. The respective normalized data from each assay plate was corrected using DMSO only treated assay plates at the beginning and end of each library screen. In-house software (http://ncgc.nih.gov/pub/openhts/curvefit/) was used to fit the resulting intra-plate titration data to the standard Hill equation and concentration-response curves were classified by a titration curve as previously described (Southall et al.). Curve fits assignments of class 1.1, 1.2, 2.1 and 2.2s were considered active (i.e., promotion of the PFK1-mEGFP clusters) and visually confirmed.

| SMILES | Curve Class |
| --- | --- |
| N#Cc1c(C2CCNCC2)cc(-c2c(O)cccc2OCC2CC2)nc1N [NCGC00347280-01] | 2.1/2.2 |
| CCn1c(-c2nonc2N)nc2cnc(Oc3cccc(NC(=O)c4ccc(OCCN5CCOCC5)cc4)c3)cc21 [NCGC00241982-03] | 2.1/2.2 |
| CC(=O)NCC(=O)N1[C@H]2CC[C@H]1c1cc(Nc3ncc(C(F)(F)F)c(NC4CCC4)n3)ccc12 [NCGC00346652-01, PF-03814735] | 2.1/2.2 |
| CC(O)C1C(=O)N2C(C(=O)O)=C(SC3CNC(C(=O)N(C)C)C3)C(C)C12 (centres unmarked) [NCGC00346518-01] | 1.1/1.2 |
| CN(CC=CC#CC(C)(C)C)Cc1cccc2ccccc12 [NCGC00159346-05] | 1.1/1.2 |
| NC(=O)c1ncn([C@@H]2O[C@H](CO)[C@@H](O)[C@H]2O)c1O [NCGC00094087-06] | 1.1/1.2 |
| CC(C)c1cnn2c(NCc3ccccc3)cc(NCCCCCCN)nc12 [NCGC00346553-01, BS-181] | 2.1/2.2 |
| COc1ccc(COc2cc3oc(=O)c4cc(C(C)O)ccc4c3cc2OC)cc1 (centres unmarked) [NCGC00263125-01] | 2.1/2.2 |
| Cc1cc(O)c2c(c1)C(=O)c1cc(O)cc(O)c1C2=O [NCGC00015420-09] | 2.1/2.2 |
| CC1CCN(c2cc(N3CCN(C)CC3)ccc2NC(=O)c2cc(C#N)c[nH]2)CC1 [NCGC00348107-01] | 2.1/2.2 |
| COc1ccc(-c2ccc3ncc4c(c3c2)n(-c2ccc(N3CCNCC3)c(C(F)(F)F)c2)c(=O)n4C)cn1 [NCGC00346681-01] | 2.1/2.2 |
| C[C@]1(CO)CN(c2cc(C(=O)Nc3ccc4c(c3)-c3c(c(C(N)=O)nn3-c3ccc(F)cc3)CC4)c(Cl)cn2)C[C@@]1(C)CO [NCGC00263213-01] | 1.1/1.2 |
| CNC(=O)c1cccc(-c2ccc3c(N4CCOC[C@H]4C)nc(N4CCOC[C@H]4C)nc3n2)c1 [NCGC00346698-01] | 1.1/1.2 |

same assay, conditions: repeat of the LOKI assay, FIGS. 8A-8C

| SMILES | PFK1-mEGFP clustering when the assay was repeated |
| --- | --- |
| CC(=O)c1c(C)c2cnc(Nc3ccc(N4CCNCC4)cn3)nc2n(C2CCCC2)c1=O [NCGC00263129-01, Palbociclib] | induced PFK1-mEGFP clustering |

From patent publication US11474097B2, “Method of identifying a compound which affects the multienzyme metabolic assembly of glucose metabolism and its association with cell cycle progression in cancer cells” (UNIVERSITY OF MARYLAND, BALTIMORE COUNTY, priority 2018, dated 2022)
